No constants are given. Whether binding was seen depends on the method and setting. Some binding calls cover weakened binding; strength is not graded here.
T1: Rubisco large subunit RbcL (Synechococcus elongatus PCC7942), recombinant, in the RbcL-Raf1 supercomplex (Synechococcus elongatus PCC7942), Q31NB3
T1 chain: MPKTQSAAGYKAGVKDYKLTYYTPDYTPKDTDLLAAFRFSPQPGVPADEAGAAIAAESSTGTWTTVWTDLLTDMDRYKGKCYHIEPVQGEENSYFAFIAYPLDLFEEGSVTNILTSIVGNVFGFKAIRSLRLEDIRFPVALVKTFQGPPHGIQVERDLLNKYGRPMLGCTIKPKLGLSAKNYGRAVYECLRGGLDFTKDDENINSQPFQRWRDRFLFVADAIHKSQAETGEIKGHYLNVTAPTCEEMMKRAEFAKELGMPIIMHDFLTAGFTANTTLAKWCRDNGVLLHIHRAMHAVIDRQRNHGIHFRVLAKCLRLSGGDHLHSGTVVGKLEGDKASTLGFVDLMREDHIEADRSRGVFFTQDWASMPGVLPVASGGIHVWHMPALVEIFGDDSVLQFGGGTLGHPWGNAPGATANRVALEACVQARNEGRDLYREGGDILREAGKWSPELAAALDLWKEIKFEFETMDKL

B1: Rubisco accumulation factor 1 (Raf1) (Synechococcus elongatus PCC7942), recombinant (natural protein, UniProt Q31Q05 1-356, looked up)
chain: MREFTPTTLSEEERQELLGQLRRKEGRWLAWARACQTLLKNGLNPQTLFEATGFEPIQQNQITVAMQVYDSILRQDPPAHVRETYQEWGSDLLYELRELDQEQRSLCAQLALERKLDADQIREVAKATKDFCRLPKQPENFDRHPGDAVAHQCWRLAQERTDLTERSRLIARGLQFAQSAGARALIEALLLDLSGVPSRKPPMLPIYRLETEEDLPRLLPFAGTLPLSSSQIEAIAAVEAEGPFGLVSSPQGQQWLALPGWQAILTAEDPIACLEQIDRLPNAPEGPTEAVVLVVDRADRDWDADHFFLVEQAEGARIQWSPSAIAAPILGRLVLILRPKRVLDEAAIATPWQFEE
notes: Raf1, Rubisco accumulation (assembly) factor 1, Synechococcus elongatus PCC7942, gene synpcc7942_0833 amplified from genomic DNA; N-terminal α-helical domain (Raf1α), flexible linker, C-terminal β-sheet dimerization domain (Raf1β); Only the Raf1α domains are modelled in PDB 6SMH; Raf1β could not be resolved; Four Raf1 dimers (eight chains) sit on one RbcL8 core; also called Rubisco assembly …
B2: Rubisco small subunit RbcS, endogenous in Synechococcus elongatus PCC7942 (protein, UniProt Q31NB2 1-111)
chain: MSMKTLPKERRFETFSYLPPLSDRQIAAQIEYMIEQGFHPLIEFNEHSNPEEFYWTMWKLPLFDCKSPQQVLDEVRECRSEYGDCYIRVAGFDNIKQCQTVSFIVHRPGRY

Assays:
[1] = target: Rubisco large subunit RbcL, endogenous in Synechococcus elongatus PCC7942 (Synechococcus elongatus PCC7942 (endogenous in Syn7942 cells)) (UniProt Q31NB3); test: native gel or EMSA; BN-PAGE (3 to 12% Bis-Tris NativePAGE) of 20 µg soluble protein from Syn7942 WT and Δraf1 cells, immunoblot with anti-RbcL antibody
[2] = target: T1, Rubisco large subunit RbcL …; test: cryo-EM structure; RbcL-Raf1 supercomplex co-expressed with GroES/EL in E. coli, purified by Ni-IMAC and Superdex 200; 1.2 mg/mL on Quantifoil grids; 200 kV Tecnai F20; 16,022 particles; 4.28 Å; both purified; details: remark: other sources report otherwise

Molecule | binding [1] | binding [2]
Rubisco large subunit RbcL, endogenous in Synechococcus elongatus PCC7942 (from UniProt Q31NB3 1-472) | binds | 
B1 |  | binds
B2 | binds | 

Reference: PMC7382273, “Rubisco accumulation factor 1 (Raf1) plays essential roles in mediating Rubisco assembly and carboxysome biogenesis” (Proceedings of the National Academy of Sciences of the …, 2020)
